# Measured values from patent publication US11220671B2, “Methods for the maturation of cardiomyocytes on amniotic fluid cell-derived ECM, cellular constructs, and uses for cardiotoxicity and proarrhythmic screening of drug compounds” (STEMBIOSYS, INC., priority 2019, dated 2022).
# B1: Flotillin-2 (protein, UniProt Q14254 2-428, looked up)
# Flotillin-2: GNCHTVGPNEALVVSGGCCGSDYKQYVFGGWAWAWWCISDTQRISLEIMTLQPRCEDVETAEGVALTVTGVAQVKIMTEKELLAVACEQFLGKNVQDIKNVVLQTLEGHLRSILGTLTVEQIYQDRDQFAKLVREVAAPDVGRMGIEILSFTIKDVYDKVDYLSSLGKTQTAVVQRDADIGVAEAERDAGIREAECKKEMLDVKFMADTKIADSKRAFELQKSAFSEEVNIKTAEAQLAYELQGAREQQKIRQEEIEIEVVQRKKQIAVEAQEILRTDKELIATVRRPAEAEAHRIQQIAEGEKVKQVLLAQAEAEKIRKIGEAEAAVIEAMGKAEAERMKLKAEAYQKYGDAAKMALVLEALPQIAAKIAAPLTKVDEIVVLSGDNSKVTSEVNRLLAELPASVHALTGVDLSKIPLIKKATGVQV
# B2: Galectin-3-binding protein (protein, UniProt Q08380 19-585, looked up)
# Galectin-3-binding protein: VNDGDMRLADGGATNQGRVEIFYRGQWGTVCDNLWDLTDASVVCRALGFENATQALGRAAFGQGSGPIMLDEVQCTGTEASLADCKSLGWLKSNCRHERDAGVVCTNETRSTHTLDLSRELSEALGQIFDSQRGCDLSISVNVQGEDALGFCGHTVILTANLEAQALWKEPGSNVTMSVDAECVPMVRDLLRYFYSRRIDITLSSVKCFHKLASAYGARQLQGYCASLFAILLPQDPSFQMPLDLYAYAVATGDALLEKLCLQFLAWNFEALTQAEAWPSVPTDLLQLLLPRSDLAVPSELALLKAVDTWSWGERASHEEVEGLVEKIRFPMMLPEELFELQFNLSLYWSHEALFQKKTLQALEFHTVPFQLLARYKGLNLTEDTYKPRIYTSPTWSAFVTDSSWSARKSQLVYQSRRGPLVKYSSDYFQAPSDYRYYPYQSFQTPQHPSFLFQDKRVSWSLVYLPTIQSCWNYGFSCSSDELPVLGLTKSGGSDRTIAYENKALMLCEGLFVADVTDFEGWKAAIPSALDTNSSKSTSSFPCPAGHFNGFRTVIRPFYLTNSSGVD
# B3: Gremlin-1 (protein, UniProt O60565 25-184, looked up)
# Gremlin-1: KKKGSQGAIPPPDKAQHNDSEQTQSPQQPGSRNRGRGQGRGTAMPGEEVLESSQEALHVTERKYLKRDWCKTQPLKQTIHEEGCNSRTIINRFCYGQCNSFYIPRHIRKEEGSFQSCSFCKPKKFTTMMVTLNCPELQPPTKKKRVTRVKQCRCISIDLD
# B4: Golgi-associated plant pathogenesis-related protein 1 (protein, UniProt Q9H4G4 2-154, looked up)
# Golgi-associated plant …: GKSASKQFHNEVLKAHNEYRQKHGVPPLKLCKNLNREAQQYSEALASTRILKHSPESSRGQCGENLAWASYDQTGKEVADRWYSEIKNYNFQQPGFTSGTGHFTAMVWKNTKKMGVGKASASDGSSFVVARYFPAGNVVNEGFFEENVLPPKK
# B5: Hyaluronan and proteoglycan link protein 1 (protein, UniProt P10915 16-354, looked up)
# Hyaluronan and proteoglycan …: DHLSDNYTLDHDRAIHIQAENGPHLLVEAEQAKVFSHRGGNVTLPCKFYRDPTAFGSGIHKIRIKWTKLTSDYLKEVDVFVSMGYHKKTYGGYQGRVFLKGGSDSDASLVITDLTLEDYGRYKCEVIEGLEDDTVVVALDLQGVVFPYFPRLGRYNLNFHEAQQACLDQDAVIASFDQLYDAWRGGLDWCNAGWLSDGSVQYPITKPREPCGGQNTVPGVRNYGFWDKDKSRYDVFCFTSNFNGRFYYLIHPTKLTYDEAVQACLNDGAQIAKVGQIFAAWKILGYDRCDAGWLADGSVRYPISRPRRRCSPTEAAVRFVGFPDKKHKLYGVYCFRAYN
# B6: Hamartin (protein, UniProt Q92574 1-1164, looked up)
# Hamartin: MAQQANVGELLAMLDSPMLGVRDDVTAVFKENLNSDRGPMLVNTLVDYYLETSSQPALHILTTLQEPHDKHLLDRINEYVGKAATRLSILSLLGHVIRLQPSWKHKLSQAPLLPSLLKCLKMDTDVVVLTTGVLVLITMLPMIPQSGKQHLLDFFDIFGRLSSWCLKKPGHVAEVYLVHLHASVYALFHRLYGMYPCNFVSFLRSHYSMKENLETFEEVVKPMMEHVRIHPELVTGSKDHELDPRRWKRLETHDVVIECAKISLDPTEASYEDGYSVSHQISARFPHRSADVTTSPYADTQNSYGCATSTPYSTSRLMLLNMPGQLPQTLSSPSTRLITEPPQATLWSPSMVCGMTTPPTSPGNVPPDLSHPYSKVFGTTAGGKGTPLGTPATSPPPAPLCHSDDYVHISLPQATVTPPRKEERMDSARPCLHRQHHLLNDRGSEEPPGSKGSVTLSDLPGFLGDLASEEDSIEKDKEEAAISRELSEITTAEAEPVVPRGGFDSPFYRDSLPGSQRKTHSAASSSQGASVNPEPLHSSLDKLGPDTPKQAFTPIDLPCGSADESPAGDRECQTSLETSIFTPSPCKIPPPTRVGFGSGQPPPYDHLFEVALPKTAHHFVIRKTEELLKKAKGNTEEDGVPSTSPMEVLDRLIQQGADAHSKELNKLPLPSKSVDWTHFGGSPPSDEIRTLRDQLLLLHNQLLYERFKRQQHALRNRRLLRKVIKAAALEEHNAAMKDQLKLQEKDIQMWKVSLQKEQARYNQLQEQRDTMVTKLHSQIRQLQHDREEFYNQSQELQTKLEDCRNMIAELRIELKKANNKVCHTELLLSQVSQKLSNSESVQQQMEFLNRQLLVLGEVNELYLEQLQNKHSDTTKEVEMMKAAYRKELEKNRSHVLQQTQRLDTSQKRILELESHLAKKDHLLLEQKKYLEDVKLQARGQLQAAESRYEAQKRITQVFELEILDLYGRLEKDGLLKKLEEEKAEAAEAAEERLDCCNDGCSDSMVGHNEEASGHNGETKTPRPSSARGSSGSRGGGGSSSSSSELSTPEKPPHQRAGPFSSRWETTMGEASASIPTTVGSLPSSKSFLGMKARELFRNKSESQCDEDGMTSSLSESLKTELGKDLGVEAKIPLNLDGPHPSPPTPDSVGQLHIMDYNETHHEHS
# B7: Keratin, type I cytoskeletal 19 (protein, UniProt P08727 1-400, looked up)
# Keratin, type I cytoskeletal …: MTSYSYRQSSATSSFGGLGGGSVRFGPGVAFRAPSIHGGSGGRGVSVSSARFVSSSSSGAYGGGYGGVLTASDGLLAGNEKLTMQNLNDRLASYLDKVRALEAANGELEVKIRDWYQKQGPGPSRDYSHYYTTIQDLRDKILGATIENSRIVLQIDNARLAADDFRTKFETEQALRMSVEADINGLRRVLDELTLARTDLEMQIEGLKEELAYLKKNHEEEISTLRGQVGGQVSVEVDSAPGTDLAKILSDMRSQYEVMAEQNRKDAEAWFTSRTEELNREVAGHTEQLQMSRSEVTDLRRTLQGLEIELQSQLSMKAALEDTLAETEARFGAQLAHIQALISGIEAQLGDVRADSERQNQEYQRLMDIKSRLEQEIATYRSLLEGQEDHYNNLSASKVL
# B8: Hyaluronan and proteoglycan link protein 3 (protein, UniProt Q96S86 18-360, looked up)
# Hyaluronan and proteoglycan …: LPFYNGFYYSNSANDQNLGNGHGKDLLNGVKLVVETPEETLFTYQGASVILPCRYRYEPALVSPRRVRVKWWKLSENGAPEKDVLVAIGLRHRSFGDYQGRVHLRQDKEHDVSLEIQDLRLEDYGRYRCEVIDGLEDESGLVELELRGVVFPYQSPNGRYQFNFHEGQQVCAEQAAVVASFEQLFRAWEEGLDWCNAGWLQDATVQYPIMLPRQPCGGPGLAPGVRSYGPRHRRLHRYDVFCFATALKGRVYYLEHPEKLTLTEAREACQEDDATIAKVGQLFAAWKFHGLDRCDAGWLADGSVRYPVVHPHPNCGPPEPGVRSFGFPDPQSRLYGVYCYRQH
# B9: Intercellular adhesion molecule 1 (protein, UniProt P05362 28-532, looked up)
# Intercellular adhesion …: QTSVSPSKVILPRGGSVLVTCSTSCDQPKLLGIETPLPKKELLLPGNNRKVYELSNVQEDSQPMCYSNCPDGQSTAKTFLTVYWTPERVELAPLPSWQPVGKNLTLRCQVEGGAPRANLTVVLLRGEKELKREPAVGEPAEVTTTVLVRRDHHGANFSCRTELDLRPQGLELFENTSAPYQLQTFVLPATPPQLVSPRVLEVDTQGTVVCSLDGLFPVSEAQVHLALGDQRLNPTVTYGNDSFSAKASVSVTAEDEGTQRLTCAVILGNQSQETLQTVTIYSFPAPNVILTKPEVSEGTEVTVKCEAHPRAKVTLNGVPAQPLGPRAQLLLKATPEDNGRSFSCSATLEVAGQLIHKNQTRELRVLYGPRLDERDCPGNWTWPENSQQTPMCQAWGNPLPELKCLKDGTFPLPIGESVTVTRDLEGTYLCRARSTQGEVTRKVTVNVLSPRYEIVIITVVAAAVIMGTAGLSTYLYNRQRKIKKYRLQQAQKGTPMKPNTQATPP
# B10: T-complex protein 1 subunit theta (protein, UniProt P50990 2-548, looked up)
# T-complex protein 1 subunit …: ALHVPKAPGFAQMLKEGAKHFSGLEEAVYRNIQACKELAQTTRTAYGPNGMNKMVINHLEKLFVTNDAATILRELEVQHPAAKMIVMASHMQEQEVGDGTNFVLVFAGALLELAEELLRIGLSVSEVIEGYEIACRKAHEILPNLVCCSAKNLRDIDEVSSLLRTSIMSKQYGNEVFLAKLIAQACVSIFPDSGHFNVDNIRVCKILGSGISSSSVLHGMVFKKETEGDVTSVKDAKIAVYSCPFDGMITETKGTVLIKTAEELMNFSKGEENLMDAQVKAIADTGANVVVTGGKVADMALHYANKYNIMLVRLNSKWDLRRLCKTVGATALPRLTPPVLEEMGHCDSVYLSEVGDTQVVVFKHEKEDGAISTIVLRGSTDNLMDDIERAVDDGVNTFKVLTRDKRLVPGGGATEIELAKQITSYGETCPGLEQYAIKKFAEAFEAIPRALAENSGVKANEVISKLYAVHQEGNKNVGLDIEAEVPAVKDMLEAGILDTYLGKYWAIKLATNAAVTVLRVDQIIMAKPAGGPKPPSGKKDWDDDQND
# Assay: Composition of amniotic fluid cell-derived ECM by mass spectrometry (total spectra count)
# Details: amniotic fluid cell-derived ECM Matrix A, mass spectrometry; label = protein component
row,Molecule,Total Spectra Count Matrix A
1,B1,0
2,B2,0
3,B3,0
4,B4,0
5,B5,0
6,B6,0
7,B7,0
8,B8,0
9,B9,0

# Same assay, conditions: amniotic fluid cell-derived ECM Matrix B, mass spectrometry; label = protein component
row,Molecule,Total Spectra Count Matrix B
1,B1,13
2,B2,4
3,B3,0
4,B4,20
5,B5,0
6,B6,0
7,B7,753
8,B8,6
9,B9,16

# Same assay, conditions: amniotic fluid cell-derived ECM Matrix C, mass spectrometry; label = protein component
row,Molecule,Total Spectra Count Matrix C
1,B1,0
2,B2,0
3,B3,3
4,B4,0
5,B5,0
6,B6,0
7,B7,0
8,B8,0
9,B9,0

# Same assay, conditions: amniotic fluid cell-derived ECM Matrix D, mass spectrometry; label = protein component
row,Molecule,Total Spectra Count Matrix D
1,B1,0
2,B2,3
3,B3,0
4,B4,0
5,B5,0
6,B6,2
7,B7,0
8,B8,0
9,B9,0

# Same assay, conditions: protein component found by mass spectrometry in amniotic fluid cell-derived ECM Matrix A (Example 1)
row,Molecule,Total Spectra Count Matrix A
1,B10,25

# Same assay, conditions: protein component found by mass spectrometry in amniotic fluid cell-derived ECM Matrix B (Example 1)
row,Molecule,Total Spectra Count Matrix B
1,B10,100

# Same assay, conditions: protein component found by mass spectrometry in amniotic fluid cell-derived ECM Matrix C (Example 1)
row,Molecule,Total Spectra Count Matrix C
1,B10,21

# Same assay, conditions: protein component found by mass spectrometry in amniotic fluid cell-derived ECM Matrix D (Example 1)
row,Molecule,Total Spectra Count Matrix D
1,B10,30
